Reference: the supplement of paper PMC10849652
Some of the results follow.

Chains of the proteins cited; added tags and fusions are not shown. Lines headed by an entry give the natural chain unless they say otherwise; changes in a name come on top.
UniProt Q9H269: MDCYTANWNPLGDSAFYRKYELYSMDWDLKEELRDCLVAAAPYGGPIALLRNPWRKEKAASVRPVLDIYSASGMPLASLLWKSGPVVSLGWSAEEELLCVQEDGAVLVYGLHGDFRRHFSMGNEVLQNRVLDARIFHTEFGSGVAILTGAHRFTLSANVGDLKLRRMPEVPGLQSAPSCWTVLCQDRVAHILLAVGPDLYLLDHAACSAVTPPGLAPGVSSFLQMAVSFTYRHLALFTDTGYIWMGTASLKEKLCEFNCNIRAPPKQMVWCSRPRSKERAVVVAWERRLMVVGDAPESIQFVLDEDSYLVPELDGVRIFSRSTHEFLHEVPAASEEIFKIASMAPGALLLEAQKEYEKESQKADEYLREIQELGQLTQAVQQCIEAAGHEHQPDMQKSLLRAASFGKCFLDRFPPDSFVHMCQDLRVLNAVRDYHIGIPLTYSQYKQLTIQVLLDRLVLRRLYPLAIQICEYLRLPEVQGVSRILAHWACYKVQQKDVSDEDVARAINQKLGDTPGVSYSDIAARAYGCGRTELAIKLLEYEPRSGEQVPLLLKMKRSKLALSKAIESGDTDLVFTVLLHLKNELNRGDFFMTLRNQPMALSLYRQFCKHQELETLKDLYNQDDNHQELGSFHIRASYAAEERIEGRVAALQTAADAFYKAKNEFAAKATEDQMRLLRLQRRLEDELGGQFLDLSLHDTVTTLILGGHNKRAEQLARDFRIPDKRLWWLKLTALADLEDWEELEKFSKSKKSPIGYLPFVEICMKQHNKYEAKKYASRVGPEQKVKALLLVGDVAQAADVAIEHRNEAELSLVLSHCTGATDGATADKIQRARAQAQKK
UniProt Q5VIR6: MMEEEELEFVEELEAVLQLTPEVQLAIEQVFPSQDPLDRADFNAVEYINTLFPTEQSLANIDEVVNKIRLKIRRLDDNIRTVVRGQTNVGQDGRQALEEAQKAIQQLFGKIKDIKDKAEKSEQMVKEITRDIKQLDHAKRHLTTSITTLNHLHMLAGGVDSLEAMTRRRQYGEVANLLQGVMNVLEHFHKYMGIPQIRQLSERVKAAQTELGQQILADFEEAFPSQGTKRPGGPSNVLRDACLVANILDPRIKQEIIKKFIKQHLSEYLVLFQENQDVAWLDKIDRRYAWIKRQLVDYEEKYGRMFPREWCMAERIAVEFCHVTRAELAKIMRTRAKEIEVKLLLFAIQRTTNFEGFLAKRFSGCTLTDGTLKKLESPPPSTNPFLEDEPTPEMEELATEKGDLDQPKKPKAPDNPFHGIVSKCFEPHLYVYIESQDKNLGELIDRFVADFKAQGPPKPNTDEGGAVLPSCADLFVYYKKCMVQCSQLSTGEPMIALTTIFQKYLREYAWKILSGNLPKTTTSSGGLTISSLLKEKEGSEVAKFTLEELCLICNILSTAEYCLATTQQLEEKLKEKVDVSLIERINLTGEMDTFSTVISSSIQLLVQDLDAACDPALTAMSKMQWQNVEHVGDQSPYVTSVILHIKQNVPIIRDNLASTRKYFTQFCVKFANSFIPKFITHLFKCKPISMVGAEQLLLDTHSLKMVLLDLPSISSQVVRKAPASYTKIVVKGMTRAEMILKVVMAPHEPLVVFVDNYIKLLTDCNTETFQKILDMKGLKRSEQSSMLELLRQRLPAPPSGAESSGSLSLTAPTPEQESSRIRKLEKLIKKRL
UniProt Q9H270: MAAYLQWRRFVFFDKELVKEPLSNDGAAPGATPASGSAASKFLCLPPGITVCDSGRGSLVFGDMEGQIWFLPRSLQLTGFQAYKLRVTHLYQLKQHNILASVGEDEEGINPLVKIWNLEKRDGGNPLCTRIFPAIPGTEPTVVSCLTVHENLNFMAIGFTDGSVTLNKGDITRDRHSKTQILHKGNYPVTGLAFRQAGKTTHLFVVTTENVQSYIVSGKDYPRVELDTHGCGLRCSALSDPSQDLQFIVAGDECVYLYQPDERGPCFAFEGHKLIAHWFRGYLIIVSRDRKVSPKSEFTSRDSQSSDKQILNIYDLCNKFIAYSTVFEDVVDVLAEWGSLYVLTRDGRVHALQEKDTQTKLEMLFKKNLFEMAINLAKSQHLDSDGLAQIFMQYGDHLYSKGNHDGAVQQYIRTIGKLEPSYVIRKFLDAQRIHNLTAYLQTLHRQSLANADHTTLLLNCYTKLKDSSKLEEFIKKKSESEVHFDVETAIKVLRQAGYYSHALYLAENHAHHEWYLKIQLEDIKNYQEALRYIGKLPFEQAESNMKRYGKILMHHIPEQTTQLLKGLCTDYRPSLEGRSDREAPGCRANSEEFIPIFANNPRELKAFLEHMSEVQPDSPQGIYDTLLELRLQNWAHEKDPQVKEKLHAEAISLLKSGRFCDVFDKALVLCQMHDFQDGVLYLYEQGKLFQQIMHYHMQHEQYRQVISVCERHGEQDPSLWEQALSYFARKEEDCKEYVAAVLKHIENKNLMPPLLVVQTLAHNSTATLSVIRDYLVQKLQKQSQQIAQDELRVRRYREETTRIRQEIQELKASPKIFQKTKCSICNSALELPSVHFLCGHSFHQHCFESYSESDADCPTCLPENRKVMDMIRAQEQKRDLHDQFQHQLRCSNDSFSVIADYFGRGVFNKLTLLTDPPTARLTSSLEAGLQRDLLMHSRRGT
UniProt P08670, whole entry, looked up: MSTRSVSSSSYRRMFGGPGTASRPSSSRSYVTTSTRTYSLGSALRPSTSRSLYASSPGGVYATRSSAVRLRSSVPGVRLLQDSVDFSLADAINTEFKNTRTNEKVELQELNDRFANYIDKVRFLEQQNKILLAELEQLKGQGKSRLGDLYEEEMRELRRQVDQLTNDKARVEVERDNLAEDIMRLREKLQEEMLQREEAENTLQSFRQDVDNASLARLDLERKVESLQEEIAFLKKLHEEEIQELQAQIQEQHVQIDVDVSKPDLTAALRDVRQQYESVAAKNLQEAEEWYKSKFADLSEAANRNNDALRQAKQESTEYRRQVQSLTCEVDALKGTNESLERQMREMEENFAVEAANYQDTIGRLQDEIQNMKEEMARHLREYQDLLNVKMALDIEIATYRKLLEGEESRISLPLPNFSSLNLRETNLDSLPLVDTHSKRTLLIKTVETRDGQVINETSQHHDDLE
UniProt Q6VEQ5: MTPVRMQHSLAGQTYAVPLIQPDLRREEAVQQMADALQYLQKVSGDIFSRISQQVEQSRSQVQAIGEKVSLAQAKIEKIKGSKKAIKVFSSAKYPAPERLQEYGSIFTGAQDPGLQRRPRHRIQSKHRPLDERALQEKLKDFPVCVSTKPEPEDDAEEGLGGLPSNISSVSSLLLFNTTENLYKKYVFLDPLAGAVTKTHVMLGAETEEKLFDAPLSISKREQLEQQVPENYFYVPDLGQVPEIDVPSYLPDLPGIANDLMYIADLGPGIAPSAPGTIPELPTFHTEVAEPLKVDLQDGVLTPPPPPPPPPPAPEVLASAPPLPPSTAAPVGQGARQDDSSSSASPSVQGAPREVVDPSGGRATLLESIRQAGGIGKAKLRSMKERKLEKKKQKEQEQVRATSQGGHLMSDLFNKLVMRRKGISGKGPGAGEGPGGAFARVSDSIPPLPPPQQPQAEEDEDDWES
UniProt Q9Y484: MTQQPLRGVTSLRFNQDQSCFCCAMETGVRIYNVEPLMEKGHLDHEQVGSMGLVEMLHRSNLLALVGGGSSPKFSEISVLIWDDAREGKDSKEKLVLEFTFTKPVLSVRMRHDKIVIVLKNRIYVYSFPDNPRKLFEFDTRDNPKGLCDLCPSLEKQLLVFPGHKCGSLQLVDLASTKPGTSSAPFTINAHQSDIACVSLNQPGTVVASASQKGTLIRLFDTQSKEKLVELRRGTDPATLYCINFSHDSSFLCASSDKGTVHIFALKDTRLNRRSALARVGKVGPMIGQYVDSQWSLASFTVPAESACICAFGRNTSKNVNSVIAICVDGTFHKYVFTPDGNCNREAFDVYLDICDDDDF
UniProt Q9HBM0: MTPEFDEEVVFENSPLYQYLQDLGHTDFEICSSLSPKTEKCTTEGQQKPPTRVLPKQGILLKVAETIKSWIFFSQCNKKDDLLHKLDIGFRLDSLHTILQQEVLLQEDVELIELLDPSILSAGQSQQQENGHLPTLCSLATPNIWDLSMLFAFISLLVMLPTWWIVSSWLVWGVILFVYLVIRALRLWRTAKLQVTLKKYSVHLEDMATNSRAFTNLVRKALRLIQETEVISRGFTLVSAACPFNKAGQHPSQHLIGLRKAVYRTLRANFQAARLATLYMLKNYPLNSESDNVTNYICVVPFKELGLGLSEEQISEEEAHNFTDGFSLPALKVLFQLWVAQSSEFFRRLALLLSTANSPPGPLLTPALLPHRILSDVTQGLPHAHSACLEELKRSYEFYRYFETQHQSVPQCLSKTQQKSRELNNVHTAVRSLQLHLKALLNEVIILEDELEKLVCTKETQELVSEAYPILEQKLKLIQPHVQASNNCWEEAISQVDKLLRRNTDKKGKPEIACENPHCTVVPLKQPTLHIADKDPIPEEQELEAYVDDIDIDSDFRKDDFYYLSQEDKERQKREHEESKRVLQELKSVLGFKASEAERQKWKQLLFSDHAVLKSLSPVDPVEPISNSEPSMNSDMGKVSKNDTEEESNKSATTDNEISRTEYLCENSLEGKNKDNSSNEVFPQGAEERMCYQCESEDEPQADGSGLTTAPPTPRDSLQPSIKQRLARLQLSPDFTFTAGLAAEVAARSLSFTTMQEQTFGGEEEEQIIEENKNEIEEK
UniProt Q9Y2W2: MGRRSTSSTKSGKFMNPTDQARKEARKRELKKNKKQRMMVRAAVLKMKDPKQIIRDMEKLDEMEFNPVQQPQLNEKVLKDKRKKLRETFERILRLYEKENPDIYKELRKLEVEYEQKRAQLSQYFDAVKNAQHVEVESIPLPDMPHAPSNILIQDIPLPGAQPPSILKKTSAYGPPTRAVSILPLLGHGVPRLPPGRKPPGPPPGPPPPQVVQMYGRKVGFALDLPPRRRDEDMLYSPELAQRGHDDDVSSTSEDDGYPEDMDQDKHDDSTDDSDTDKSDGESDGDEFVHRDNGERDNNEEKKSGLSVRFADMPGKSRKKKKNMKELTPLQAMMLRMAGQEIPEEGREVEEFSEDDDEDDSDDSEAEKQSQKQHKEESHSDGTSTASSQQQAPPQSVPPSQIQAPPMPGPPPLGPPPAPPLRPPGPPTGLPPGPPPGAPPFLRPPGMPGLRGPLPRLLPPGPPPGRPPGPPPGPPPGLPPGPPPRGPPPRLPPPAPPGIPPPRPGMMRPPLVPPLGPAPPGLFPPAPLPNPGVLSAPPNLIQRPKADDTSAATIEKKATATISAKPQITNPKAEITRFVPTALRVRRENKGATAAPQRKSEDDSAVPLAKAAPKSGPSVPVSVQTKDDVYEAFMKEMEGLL
UniProt Q96EX3: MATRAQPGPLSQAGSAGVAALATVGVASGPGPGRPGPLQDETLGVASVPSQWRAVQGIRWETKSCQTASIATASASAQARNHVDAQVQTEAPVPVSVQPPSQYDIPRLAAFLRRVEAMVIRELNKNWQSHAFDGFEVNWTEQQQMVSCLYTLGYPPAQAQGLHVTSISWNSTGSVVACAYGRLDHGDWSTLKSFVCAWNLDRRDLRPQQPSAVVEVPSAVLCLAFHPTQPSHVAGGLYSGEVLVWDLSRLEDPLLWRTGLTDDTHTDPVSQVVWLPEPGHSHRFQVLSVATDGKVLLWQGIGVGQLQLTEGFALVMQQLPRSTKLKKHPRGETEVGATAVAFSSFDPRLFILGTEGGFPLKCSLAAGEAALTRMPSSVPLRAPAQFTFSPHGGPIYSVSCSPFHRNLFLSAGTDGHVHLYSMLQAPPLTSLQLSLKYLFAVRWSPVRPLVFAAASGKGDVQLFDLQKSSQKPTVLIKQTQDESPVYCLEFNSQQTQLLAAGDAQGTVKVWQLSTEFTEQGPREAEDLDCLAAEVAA
UniProt Q9H6Y2: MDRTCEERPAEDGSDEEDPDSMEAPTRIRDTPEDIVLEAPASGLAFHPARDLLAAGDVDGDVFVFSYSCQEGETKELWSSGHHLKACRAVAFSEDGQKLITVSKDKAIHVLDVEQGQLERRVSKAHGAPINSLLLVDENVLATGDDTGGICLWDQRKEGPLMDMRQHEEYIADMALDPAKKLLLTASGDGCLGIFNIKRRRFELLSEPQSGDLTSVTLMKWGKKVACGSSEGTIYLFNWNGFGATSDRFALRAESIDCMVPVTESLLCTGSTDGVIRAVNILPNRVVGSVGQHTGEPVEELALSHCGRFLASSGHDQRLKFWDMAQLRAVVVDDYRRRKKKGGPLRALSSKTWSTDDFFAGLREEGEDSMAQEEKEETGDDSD
UniProt Q5MNZ6: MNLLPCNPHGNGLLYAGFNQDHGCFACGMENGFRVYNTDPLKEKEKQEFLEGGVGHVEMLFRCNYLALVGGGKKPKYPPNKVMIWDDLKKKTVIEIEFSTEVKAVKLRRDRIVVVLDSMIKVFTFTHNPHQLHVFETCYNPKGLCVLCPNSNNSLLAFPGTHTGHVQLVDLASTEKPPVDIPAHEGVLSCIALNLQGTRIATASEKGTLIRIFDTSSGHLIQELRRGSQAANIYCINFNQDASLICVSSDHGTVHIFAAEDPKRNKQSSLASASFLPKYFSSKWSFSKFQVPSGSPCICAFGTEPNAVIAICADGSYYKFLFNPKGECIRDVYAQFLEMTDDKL

How the values were obtained:
Experiment in all cases: log2 fold change, soluble protein after heating vs DMSO (PISA); higher = thermal stabilisation; K562 cells, 10 uM, 30 min; active = over 0.2 and 3.5 SD of the protein, either way, in both replicates (recomputed)
[1] = compound: COC1=CC=C(C=C1)CN2C=CC3=C2C=C(C=C3)C(=O)NO
In short: (§1)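 Values are thermal stability changes relative to control samples and are taken from duplicates. They are stated as log2 fold changes. Before quantification by TMTpro 16plex LC-MS/MS with equalised channel sums, K562 cells at 2×10^6 cells/mL were treated with 10 μM compound for 30 min, heated in aliquots for 3 min across 48°C-58°C, pooled, extracted in PBS with 0.5% NP-40 at 4°C, and centrifuged at 21,000xg for 90 min to give the soluble supernatant.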

filanesib = compound: CON(C)C(=O)N1N=C(c2cc(F)ccc2F)S[C@@]1(CCCN)c1ccccc1 [filanesib]
In short: as §1

zotarolimus = compound: CO[C@H]1C[C@@H]2CC[C@@H](C)[C@@](O)(O2)C(=O)C(=O)N2CCCC[C@H]2C(=O)O[C@H]([C@H](C)C[C@@H]2CC[C@H](n3cnnn3)[C@H](OC)C2)CC(=O)[C@H](C)/C=C(\C)[C@@H](O)[C@@H](OC)C(=O)[C@H](C)C[C@H](C)/C=C/C=C/C=C/1C [zotarolimus]
In short: as §1

idasanutlin = compound: COc1cc(C(=O)O)ccc1NC(=O)[C@@H]1N[C@@H](CC(C)(C)C)[C@](C#N)(c2ccc(Cl)cc2F)[C@H]1c1cccc(Cl)c1F [idasanutlin]
In short: as §1

alisertib = compound: COc1cc(Nc2ncc3c(n2)-c2ccc(Cl)cc2C(c2c(F)cccc2OC)=NC3)ccc1C(=O)O [alisertib]
In short: as §1

[2] = compound: COc1cc2nc(-c3cc(F)ccc3O)nc(N[C@@H]3CNC[C@H]3C(C)(C)O)c2cc1OC
In short: as §1

gefitinib = compound: COc1cc2ncnc(Nc3ccc(F)c(Cl)c3)c2cc1OCCCN1CCOCC1 [gefitinib]
In short: as §1

[3] = compound: COc1cccc2cc(-c3nc([C@H]4CC[C@H](C(=O)O)CC4)n4ncnc(N)c34)[nH]c12
In short: as §1

lapatinib = compound: CS(=O)(=O)CCNCc1ccc(-c2ccc3ncnc(Nc4ccc(OCc5cccc(F)c5)c(Cl)c4)c3c2)o1 [lapatinib]
In short: as §1

pictilisib = compound: CS(=O)(=O)N1CCN(Cc2cc3nc(-c4cccc5[nH]ncc45)nc(N4CCOCC4)c3s2)CC1 [pictilisib]
In short: as §1

Measured: log2 fold change

VPS16 (UniProt Q9H269)
inactive: [1] 0.018 | filanesib -0.093 | zotarolimus 0.033 | idasanutlin -0.065 | alisertib -0.056 | [2] -0.009 | gefitinib -0.1 | [3] -0.017 | lapatinib -0.006 | pictilisib -0.044

WDR7 (UniProt Q9Y4E6)
inactive: [1] -0.04 | filanesib 0.084 | zotarolimus 0.045 | idasanutlin -0.016 | alisertib -0.076 | [2] -0.102 | gefitinib -0.027 | [3] -0.074 | lapatinib 0.003 | pictilisib -0.097

WDR48 (UniProt Q8TAF3)
inactive: [1] -0.025 | filanesib -0.029 | zotarolimus -0.027 | idasanutlin -0.005 | alisertib -0.044 | [2] 0.038 | gefitinib 0.023 | [3] 0.048 | lapatinib -0.033 | pictilisib 0.033

VTI1B (UniProt Q9UEU0)
inactive: [1] -0.089 | filanesib -0.027 | zotarolimus -0.063 | idasanutlin -0.026 | alisertib 0.046 | [2] 0 | gefitinib -0.023 | [3] 0.137 | lapatinib 0.002 | pictilisib 0.061

VPS53 isoform 4 (UniProt Q5VIR6)
inactive: [1] 0.015 | filanesib -0.008 | zotarolimus 0.095 | idasanutlin -0.048 | alisertib 0.01 | [2] 0.089 | gefitinib 0.025 | [3] 0.003 | lapatinib 0.012 | pictilisib -0.066

WDR1 (UniProt O75083)
inactive: [1] 0 | filanesib -0.095 | zotarolimus 0.025 | idasanutlin -0.058 | alisertib 0.033 | [2] 0.012 | gefitinib 0.011 | [3] 0.008 | lapatinib -0.032 | pictilisib 0.023

VWA8 (UniProt A3KMH1)
inactive: [1] -0.025 | filanesib -0.052 | zotarolimus -0.027 | idasanutlin -0.119 | alisertib -0.037 | [2] 0.006 | gefitinib 0.011 | [3] 0.077 | lapatinib 0 | pictilisib 0.01

VPS11 (UniProt Q9H270)
inactive: [1] -0.019 | filanesib -0.038 | zotarolimus 0.053 | idasanutlin -0.063 | alisertib -0.022 | [2] -0.032 | gefitinib -0.005 | [3] -0.041 | lapatinib -0.045 | pictilisib -0.013

VPS35L (UniProt Q7Z3J2)
inactive: [1] 0.028 | filanesib 0.049 | zotarolimus -0.016 | idasanutlin -0.118 | alisertib 0.041 | [2] 0.058 | gefitinib 0.059 | [3] -0.032 | lapatinib -0.05 | pictilisib 0.061

VWDE (UniProt Q8N2E2)
inactive: [1] -0.006 | filanesib 0.1 | zotarolimus 0.052 | idasanutlin 0.036 | alisertib -0.028 | [2] -0.008 | gefitinib 0.033 | [3] -0.024 | lapatinib 0.093 | pictilisib -0.014

VKORC1 (UniProt Q9BQB6)
inactive: [1] 0.079 | filanesib -0.077 | zotarolimus 0.022 | idasanutlin -0.089 | alisertib 0.016 | [2] -0.019 | gefitinib -0.05 | [3] -0.144 | lapatinib -0.06 | pictilisib -0.021

VPS41 (UniProt P49754)
inactive: [1] 0.004 | filanesib -0.085 | zotarolimus 0.015 | idasanutlin -0.068 | alisertib 0.038 | [2] -0.032 | gefitinib -0.002 | [3] -0.063 | lapatinib 0.008 | pictilisib -0.028

Quoted at random: 2 entries already listed
VPS35L (UniProt Q7Z3J2)
inactive: [1] 0.028 | filanesib 0.049 | zotarolimus -0.016 | idasanutlin -0.118 | alisertib 0.041 | [2] 0.058 | gefitinib 0.059 | [3] -0.032 | lapatinib -0.05 | pictilisib 0.061

VWDE (UniProt Q8N2E2)
inactive: [1] -0.006 | filanesib 0.1 | zotarolimus 0.052 | idasanutlin 0.036 | alisertib -0.028 | [2] -0.008 | gefitinib 0.033 | [3] -0.024 | lapatinib 0.093 | pictilisib -0.014

Going on with the list.

WDR59 (UniProt Q6PJI9)
inactive: [1] -0.092 | filanesib 0.013 | zotarolimus -0.15 | idasanutlin 0.015 | alisertib -0.207 | [2] 0.081 | gefitinib 0.026 | [3] 0.064 | lapatinib -0.031 | pictilisib 0.056

VIM (UniProt P08670)
inactive: [1] -0.194 | filanesib 0.364 | zotarolimus 0.16 | idasanutlin 0.241 | alisertib -0.323 | [2] -0.221 | gefitinib -0.066 | [3] -0.357 | lapatinib 0.109 | pictilisib -0.091

WDR46 (UniProt O15213)
inactive: [1] -0.129 | filanesib 0.425 | zotarolimus 0.075 | idasanutlin 0.156 | alisertib -0.162 | [2] 0.037 | gefitinib -0.036 | [3] -0.018 | lapatinib -0.006 | pictilisib -0.052

WDR41 (UniProt Q9HAD4)
inactive: [1] 0.025 | filanesib -0.154 | zotarolimus -0.007 | idasanutlin -0.031 | alisertib -0.072 | [2] -0.254 | gefitinib -0.002 | [3] 0.014 | lapatinib 0.049 | pictilisib -0.056

VPS26B (UniProt Q4G0F5)
inactive: [1] -0.012 | filanesib -0.11 | zotarolimus -0.023 | idasanutlin -0.061 | alisertib -0.088 | [2] -0.013 | gefitinib -0.011 | [3] 0.049 | lapatinib 0.016 | pictilisib -0.027

WASH2P (UniProt Q6VEQ5)
inactive: [1] 0.007 | filanesib -0.067 | zotarolimus -0.029 | idasanutlin -0.055 | alisertib -0.027 | [2] 0.067 | gefitinib 0.001 | [3] -0.036 | lapatinib 0.016 | pictilisib 0.053

WDR45 (UniProt Q9Y484)
inactive: [1] -0.099 | filanesib 0.033 | zotarolimus -0.04 | idasanutlin -0.008 | alisertib -0.003 | [2] -0.013 | gefitinib -0.028 | [3] 0.039 | lapatinib 0.044 | pictilisib 0.04

WDR73 (UniProt Q6P4I2)
inactive: [1] -0.011 | filanesib 0.033 | zotarolimus 0.002 | idasanutlin -0.03 | alisertib -0.001 | [2] 0.051 | gefitinib 0.024 | [3] 0.066 | lapatinib 0.023 | pictilisib 0.029

VEZT (UniProt Q9HBM0)
inactive: [1] -0.049 | filanesib -0.055 | zotarolimus 0.02 | idasanutlin -0.038 | alisertib -0.045 | [2] -0.051 | gefitinib -0.09 | [3] 0.051 | lapatinib 0.161 | pictilisib -0.02

WBP11 (UniProt Q9Y2W2)
inactive: [1] -0.012 | filanesib 0.029 | zotarolimus -0.017 | idasanutlin 0.031 | alisertib -0.026 | [2] -0.021 | gefitinib -0.006 | [3] 0.035 | lapatinib -0.006 | pictilisib -0.023

WDR34 (UniProt Q96EX3)
inactive: [1] -0.126 | filanesib 0.082 | zotarolimus 0.039 | idasanutlin -0.166 | alisertib -0.402 | [2] 0.042 | gefitinib 0 | [3] -0.033 | lapatinib 0 | pictilisib -0.029

WDR55 (UniProt Q9H6Y2)
inactive: [1] -0.013 | filanesib -0.042 | zotarolimus -0.038 | idasanutlin 0 | alisertib -0.038 | [2] -0.057 | gefitinib 0.018 | [3] 0.04 | lapatinib 0.013 | pictilisib 0.022

WIPF2 (UniProt Q8TF74)
inactive: [1] 0.037 | filanesib -0.023 | zotarolimus -0.05 | idasanutlin 0.055 | alisertib -0.007 | [2] 0.053 | gefitinib 0.029 | [3] 0.005 | lapatinib 0.04 | pictilisib 0.012

VTA1 (UniProt Q9NP79)
inactive: [1] -0.01 | filanesib -0.033 | zotarolimus 0.044 | idasanutlin -0.094 | alisertib -0.014 | [2] 0.056 | gefitinib -0.003 | [3] -0.008 | lapatinib -0.014 | pictilisib 0.006

WRAP73 (UniProt Q9P2S5)
inactive: [1] 0.066 | filanesib -0.055 | zotarolimus 0.02 | idasanutlin -0.041 | alisertib -0.069 | [2] 0.008 | gefitinib -0.041 | [3] 0.069 | lapatinib 0.001 | pictilisib 0.04

WDR45B (UniProt Q5MNZ6)
inactive: [1] -0.074 | filanesib 0 | zotarolimus -0.064 | idasanutlin -0.029 | alisertib 0.011 | [2] 0.081 | gefitinib 0.025 | [3] 0 | lapatinib -0.057 | pictilisib -0.142

WBP4 (UniProt O75554)
inactive: [1] 0.001 | filanesib -0.082 | zotarolimus -0.025 | idasanutlin 0.022 | alisertib -0.042 | [2] -0.009 | gefitinib 0.014 | [3] -0.003 | lapatinib 0.05 | pictilisib -0.139

WASHC2C, A0A096LPC5
inactive: [1] -0.072 | filanesib 0.057 | zotarolimus -0.062 | idasanutlin 0.146 | alisertib -0.042 | [2] 0.305 | gefitinib 0.018 | [3] 0.098 | lapatinib -0.141 | pictilisib 0.048
